This test concerns the target 3α4:2β2 nAChR (Homo sapiens, UniProt P17787+P43681). Put plainly: Two-electrode voltage-clamp electrophysiology in Xenopus oocytes, WT 3α4:2β2 receptor. The class given is cell-based. The settings on record: 3α4:2β2, ligand alone; Hill co-efficient of one.

The chains behind the UniProt entries cited, without tags or fusion partners. Residues count along the entry.
UniProt P17787, 26-502 limits assumed: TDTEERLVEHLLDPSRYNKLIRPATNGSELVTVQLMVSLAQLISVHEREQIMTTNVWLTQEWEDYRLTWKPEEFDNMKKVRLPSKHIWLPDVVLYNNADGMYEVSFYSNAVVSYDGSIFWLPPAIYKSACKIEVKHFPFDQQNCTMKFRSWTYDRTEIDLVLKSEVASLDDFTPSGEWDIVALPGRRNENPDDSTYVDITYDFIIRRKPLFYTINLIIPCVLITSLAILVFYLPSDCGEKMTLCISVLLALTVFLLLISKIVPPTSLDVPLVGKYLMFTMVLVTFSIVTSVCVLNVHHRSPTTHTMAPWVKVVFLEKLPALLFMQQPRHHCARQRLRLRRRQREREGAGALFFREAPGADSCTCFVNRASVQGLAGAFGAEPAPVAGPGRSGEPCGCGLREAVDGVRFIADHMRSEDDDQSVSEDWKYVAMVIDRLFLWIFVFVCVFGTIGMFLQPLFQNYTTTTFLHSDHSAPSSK
UniProt P43681, 29-627 limits assumed: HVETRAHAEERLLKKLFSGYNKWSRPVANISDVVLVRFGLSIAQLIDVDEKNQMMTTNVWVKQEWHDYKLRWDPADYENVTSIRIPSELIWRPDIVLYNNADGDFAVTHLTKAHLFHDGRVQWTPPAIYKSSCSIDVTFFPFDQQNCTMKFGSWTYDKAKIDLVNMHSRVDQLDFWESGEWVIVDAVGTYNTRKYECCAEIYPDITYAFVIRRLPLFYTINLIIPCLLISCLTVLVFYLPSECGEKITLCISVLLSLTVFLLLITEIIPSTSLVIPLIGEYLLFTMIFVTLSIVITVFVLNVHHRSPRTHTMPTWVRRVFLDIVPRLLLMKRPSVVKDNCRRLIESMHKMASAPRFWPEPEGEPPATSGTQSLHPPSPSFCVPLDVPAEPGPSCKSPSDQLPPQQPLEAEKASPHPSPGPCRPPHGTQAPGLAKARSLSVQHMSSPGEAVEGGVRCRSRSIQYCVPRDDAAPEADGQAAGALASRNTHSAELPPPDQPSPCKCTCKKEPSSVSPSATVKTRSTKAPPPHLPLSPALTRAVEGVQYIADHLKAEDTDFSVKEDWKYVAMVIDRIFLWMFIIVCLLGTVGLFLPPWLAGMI

SMILES strings stand for the structures. For part of its entries the source gives two or more results. They are shown here; other results are not. There may be further records. Results that share an entry differ, and nothing given here explains why; some may be repeats, others may stem from another dose, organism or construct than stated.

Turning to `CCOc1cncc(/C=C/CCNC)c1` [TC-2559], the 50% effective concentration (EC50) was 3.3 µM and 640 nM.

The values above are taken from publication PMC4995024, “Ligand Binding at the α4-α4 Agonist-Binding Site of the α4β2 nAChR Triggers Receptor Activation through a Pre-Activated Conformational State” (PLoS ONE, 2016).
